Values of other authors as cited in patent US20210163888A1, “INDUCTION OF MYELINATING OLIGODENDROCYTES IN HUMAN CORTICAL SPHEROIDS” (Case Western Reserve University, priority 2018, published 2021).
Structures can show the parent of a compound that is named as a salt.

System: rodent oligodendrocyte generation and myelination
Conditions: in vitro and in vivo; cited from earlier work

SMILES: CN1CCC[C@@H]1CCO[C@](C)(c1ccccc1)c1ccc(Cl)cc1 [clemastine, Clemastine fumarate]
- Stimulation of rodent oligodendrocyte generation and myelination: potent stimulators
